The target in the assay is T1, 2× HA-3× FLAG-Eya1 (UniProt P97767).
T1 sequence: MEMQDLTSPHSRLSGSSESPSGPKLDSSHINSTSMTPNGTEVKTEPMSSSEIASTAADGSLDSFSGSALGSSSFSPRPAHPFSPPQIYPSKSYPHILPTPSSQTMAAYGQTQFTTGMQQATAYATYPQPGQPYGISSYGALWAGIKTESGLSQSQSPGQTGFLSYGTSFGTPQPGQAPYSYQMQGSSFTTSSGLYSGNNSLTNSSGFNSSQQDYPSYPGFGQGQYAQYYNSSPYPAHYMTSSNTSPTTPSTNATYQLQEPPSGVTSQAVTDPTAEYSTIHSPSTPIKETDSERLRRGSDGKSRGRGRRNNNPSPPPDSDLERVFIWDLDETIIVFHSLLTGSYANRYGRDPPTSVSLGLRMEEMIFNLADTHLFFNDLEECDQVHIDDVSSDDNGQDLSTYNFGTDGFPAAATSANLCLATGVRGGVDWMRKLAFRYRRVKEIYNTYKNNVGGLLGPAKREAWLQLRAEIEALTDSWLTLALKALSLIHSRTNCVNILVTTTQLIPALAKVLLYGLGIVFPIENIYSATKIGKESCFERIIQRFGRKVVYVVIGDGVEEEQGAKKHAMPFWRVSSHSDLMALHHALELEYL
Nature of the assay: affinity purification with mass spectrometry; tandem purification of HF-Eya1 from lysate of stable HEK293 cells: anti-FLAG M2 beads, FLAG peptide elution, then anti-HA agarose; 50 mM Tris-HCl pH 7.5, 150 mM NaCl, 0.1% Nonidet P-40, 4°C; 12 bands (B1-B12) cut from a silver-stained gel.

These are yes or no findings as the source states them, for the method shown. Binding seen in cells or lysates may run through a third protein. These calls come from enrichment with a bait or labelling near it, and not all partners need be listed. Sequences can lack the tags named with a protein.

B1: FLYWCH1 (a zinc-finger protein) (protein, UniProt Q4VC44 1-716)
chain: MPLPEPSEQEGESVKAGQEPSPKPGTDVIPAAPRKPREFSKLVLLTASDQDEDGVGSKPQEVHCVLSLEMAGPATLASTLQILPVEEQGGVVQPALEMPEQKCSKLDAAAPQSLEFLRTPFGGRLLVLESFLYKQEKAVGDKVYWKCRQHAELGCRGRAITRGLRATVMRGHCHAPDEQGLEARRQREKLPSLALPEGLGEPQGPEGPGGRVEEPLEGVGPWQCPEEPEPTPGLVLSKPALEEEEAPRALSLLSLPPKKRSILGLGQARPLEFLRTCYGGSFLVHESFLYKREKAVGDKVYWTCRDHALHGCRSRAITQGQRVTVMRGHCHQPDMEGLEARRQQEKAVETLQAGQDGPGSQVDTLLRGVDSLLYRRGPGPLTLTRPRPRKRAKVEDQELPTQPEAPDEHQDMDADPGGPEFLKTPLGGSFLVYESFLYRREKAAGEKVYWTCRDQARMGCRSRAITQGRRVTVMRGHCHPPDLGGLEALRQREKRPNTAQRGSPGGPEFLKTPLGGSFLVYESFLYRREKAAGEKVYWTCRDQARMGCRSRAITQGRRVMVMRRHCHPPDLGGLEALRQREHFPNLAQWDSPDPLRPLEFLRTSLGGRFLVHESFLYRKEKAAGEKVYWMCRDQARLGCRSRAITQGHRIMVMRSHCHQPDLAGLEALRQRERLPTTAQQEDPEKIQVQLCFKTCSPESQQIYGDIKDVRLDGESQ
On to B1, for which the binding entry is reported as “binds”.

B2: SCYL2 (protein, UniProt Q6P3W7 1-929)
chain: MESMLNKLKSTVTKVTADVTSAVMGNPVTREFDVGRHIASGGNGLAWKIFNGTKKSTKQEVAVFVFDKKLIDKYQKFEKDQIIDSLKRGVQQLTRLRHPRLLTVQHPLEESRDCLAFCTEPVFASLANVLGNWENLPSPISPDIKDYKLYDVETKYGLLQVSEGLSFLHSSVKMVHGNITPENIILNKSGAWKIMGFDFCVSSTNPSEQEPKFPCKEWDPNLPSLCLPNPEYLAPEYILSVSCETASDMYSLGTVMYAVFNKGKPIFEVNKQDIYKSFSRQLDQLSRLGSSSLTNIPEEVREHVKLLLNVTPTVRPDADQMTKIPFFDDVGAVTLQYFDTLFQRDNLQKSQFFKGLPKVLPKLPKRVIVQRILPCLTSEFVNPDMVPFVLPNVLLIAEECTKEEYVKLILPELGPVFKQQEPIQILLIFLQKMDLLLTKTPPDEIKNSVLPMVYRALEAPSIQIQELCLNIIPTFANLIDYPSMKNALIPRIKNACLQTSSLAVRVNSLVCLGKILEYLDKWFVLDDILPFLQQIPSKEPAVLMGILGIYKCTFTHKKLGITKEQLAGKVLPHLIPLSIENNLNLNQFNSFISVIKEMLNRLESEHKTKLEQLHIMQEQQKSLDIGNQMNVSEEMKVTNIGNQQIDKVFNNIGADLLTGSESENKEDGLQNKHKRASLTLEEKQKLAKEQEQAQKLKSQQPLKPQVHTPVATVKQTKDLTDTLMDNMSSLTSLSVSTPKSSASSTFTSVPSMGIGMMFSTPTDNTKRNLTNGLNANMGFQTSGFNMPVNTNQNFYSSPSTVGVTKMTLGTPPTLPNFNALSVPPAGAKQTQQRPTDMSALNNLFGPQKPKVSMNQLSQQKPNQWLNQFVPPQGSPTMGSSVMGTQMNVIGQSAFGMQGNPFFNPQNFAQPPTTMTNSSSASNDLKDLFG
As to B2, the binding entry is “binds”.

B3: NRF (protein, UniProt O15226 1-690)
chain: MEKILQMAEGIDIGEMPSYDLVLSKPSKGQKRHLSTCDGQNPPKKQAGSKFHARPRFEPVHFVASSSKDERQEDPYGPQTKEVNEQTHFASMPRDIYQDYTQDSFSIQDGNSQYCDSSGFILTKDQPVTANMYFDSGNPAPSTTSQQANSQSTPEPSPSQTFPESVVAEKQYFIEKLTATIWKNLSNPEMTSGSDKINYTYMLTRCIQACKTNPEYIYAPLKEIPPADIPKNKKLLTDGYACEVRCQNIYLTTGYAGSKNGSRDRATELAVKLLQKRIEVRVVRRKFKHTFGEDLVVCQIGMSSYEFPPALKPPEDLVVLGKDASGQPIFNASAKHWTNFVITENANDAIGILNNSASFNKMSIEYKYEMMPNRTWRCRVFLQDHCLAEGYGTKKTSKHAAADEALKILQKTQPTYPSVKSSQCHTGSSPRGSGKKKDIKDLVVYENSSNPVCTLNDTAQFNRMTVEYVYERMTGLRWKCKVILESEVIAEAVGVKKTVKYEAAGEAVKTLKKTQPTVINNLKKGAVEDVISRNEIQGRSAEEAYKQQIKEDNIGNQLLRKMGWTGGGLGKSGEGIREPISVKEQHKREGLGLDVERVNKIAKRDIEQIIRNYARSESHTDLTFSRELTNDERKQIHQIAQKYGLKSKSHGVGHDRYLVVGRKRRKEDLLDQLKQEGQVGHYELVMPQAN
Regarding B3, the binding entry is “binds”.

B4: MYBBP1A (proto-oncogene MYB-binding protein) (protein, UniProt Q9BQG0 1-1328)
chain: MESRDPAQPMSPGEATQSGARPADRYGLLKHSREFLDFFWDIAKPEQETRLAATEKLLEYLRGRPKGSEMKYALKRLITGLGVGRETARPCYSLALAQLLQSFEDLPLCSILQQIQEKYDLHQVKKAMLRPALFANLFGVLALFQSGRLVKDQEALMKSVKLLQALAQYQNHLQEQPRKALVDILSEVSKATLQEILPEVLKADLNIILSSPEQLELFLLAQQKVPSKLKKLVGSVNLFSDENVPRLVNVLKMAASSVKKDRKLPAIALDLLRLALKEDKFPRFWKEVVEQGLLKMQFWPASYLCFRLLGAALPLLTKEQLHLVMQGDVIRHYGEHVCTAKLPKQFKFAPEMDDYVGTFLEGCQDDPERQLAVLVAFSSVTNQGLPVTPTFWRVVRFLSPPALQGYVAWLRAMFLQPDLDSLVDFSTNNQKKAQDSSLHMPERAVFRLRKWIIFRLVSIVDSLHLEMEEALTEQVARFCLFHSFFVTKKPTSQIPETKHPFSFPLENQAREAVSSAFFSLLQTLSTQFKQAPGQTQGGQPWTYHLVQFADLLLNHSHNVTTVTPFTAQQRQAWDRMLQTLKELEAHSAEARAAAFQHLLLLVGIHLLKSPAESCDLLGDIQTCIRKSLGEKPRRSRTKTIDPQEPPWVEVLVEILLALLAQPSHLMRQVARSVFGHICSHLTPRALQLILDVLNPETSEDENDRVVVTDDSDERRLKGAEDKSEEGEDNRSSESEEESEGEESEEEERDGDVDQGFREQLMTVLQAGKALGGEDSENEEELGDEAMMALDQSLASLFAEQKLRIQARRDEKNKLQKEKALRRDFQIRVLDLVEVLVTKQPENALVLELLEPLLSIIRRSLRSSSSKQEQDLLHKTARIFTHHLCRARRYCHDLGERAGALHAQVERLVQQAGRQPDSPTALYHFNASLYLLRVLKGNTAEGCVHETQEKQKAGTDPSHMPTGPQAASCLDLNLVTRVYSTALSSFLTKRNSPLTVPMFLSLFSRHPVLCQSLLPILVQHITGPVRPRHQACLLLQKTLSMREVRSCFEDPEWKQLMGQVLAKVTENLRVLGEAQTKAQHQQALSSLELLNVLFRTCKHEKLTLDLTVLLGVLQGQQQSLQQGAHSTGSSRLHDLYWQAMKTLGVQRPKLEKKDAKEIPSATQSPISKKRKKKGFLPETKKRKKRKSEDGTPAEDGTPAATGGSQPPSMGRKKRNRTKAKVPAQANGTPTTKSPAPGAPTRSPSTPAKSPKLQKKNQKPSQVNGAPGSPTEPAGQKQHQKALPKKGVLGKSPLSALARKKARLSLVIRSPSLLQSGAKKKAQVRKAGKP
Take B4: the binding result is recorded as “binds”.

B5: CRSP3 (protein, UniProt Q9ULK4 1-1368)
chain: METQLQSIFEEVVKTEVIEEAFPGMFMDTPEDEKTKLISCLGAFRQFWGGLSQESHEQCIQWIVKFIHGQHSPKRISFLYDCLAMAVETGLLPPRLVCESLINSDTLEWERTQLWALTFKLVRKIIGGVDYKGVRDLLKVILEKILTIPNTVSSAVVQQLLAAREVIAYILERNACLLPAYFAVTEIRKLYPEGKLPHWLLGNLVSDFVDTFRPTARINSICGRCSLLPVVNNSGAICNSWKLDPATLRFPLKGLLPYDKDLFEPQTALLRYVLEQPYSRDMVCNMLGLNKQHKQRCPVLEDQLVDLVVYAMERSETEEKFDDGGTSQLLWQHLSSQLIFFVLFQFASFPHMVLSLHQKLAGRGLIKGRDHLMWVLLQFISGSIQKNALADFLPVMKLFDLLYPEKEYIPVPDINKPQSTHAFAMTCIWIHLNRKAQNDNSKLQIPIPHSLRLHHEFLQQSLRNKSLQMNDYKIALLCNAYSTNSECFTLPMGALVETIYGNGIMRIPLPGTNCMASGSITPLPMNLLDSLTVHAKMSLIHSIATRVIKLAHAKSSVALAPALVETYSRLLVYMEIESLGIKGFISQLLPTVFKSHAWGILHTLLEMFSYRMHHIQPHYRVQLLSHLHTLAAVAQTNQNQLHLCVESTALRLITALGSSEVQPQFTRFLSDPKTVLSAESEELNRALILTLARATHVTDFFTGSDSIQGTWCKDILQTIMSFTPHNWASHTLSCFPGPLQAFFKQNNVPQESRFNLKKNVEEEYRKWKSMSNENDIITHFSMQGSPPLFLCLLWKMLLETDHINQIGYRVLERIGARALVAHVRTFADFLVYEFSTSAGGQQLNKCIEILNDMVWKYNIVTLDRLILCLAMRSHEGNEAQVCYFIIQLLLLKPNDFRNRVSDFVKENSPEHWLQNDWHTKHMNYHKKYPEKLYFEGLAEQVDPPVQIQSPYLPIYFGNVCLRFLPVFDIVIHRFLELLPVSKSLETLLDHLGGLYKFHDRPVTYLYNTLHYYEMHLRDRAFLKRKLVHAIIGSLKDNRPQGWCLSDTYLKCAMNAREENPWVPDDTYYCRLIGRLVDTMAGKSPGPFPNCDWRFNEFPNPAAHALHVTCVELMALAVSGKEVGNALLNVVLKSQPLVPRENITAWMNAIGLIITALPEPYWIVLHDRIVSVISSPSLTSETEWVGYPFRLFDFTACHQSYSEMSCSYTLALAHAVWHHSSIGQLSLIPKFLTEVLLPIVKTEFQLLYVYHLVGPFLQRFQQERTRCMIEIGVAFYDMLLNVDQCSTHLNYMDPICDFLYHMKYMFTGDSVKEQVEKIICNLKPALKLRLRFITHISKMEPAAVPPQAMNSGSPAPQSNQVPVSLPVTQ
Turning to B5, the binding entry is recorded as “binds”.
